Measured values published in the supplement of paper PMC11732987, “Enantioselective OTUD7B fragment discovery through chemoproteomics screening and high-throughput optimisation” (Communications Chemistry, 2025).
The list shows a part of the results. The data scatter; read single values as rough.

By UniProt entry, the sequences of proteins in these tests, tags left out. Where a name states a change or a piece, a line headed by the entry shows the natural chain unless it says otherwise. Residues count along the entry.
UniProt Q3SY69: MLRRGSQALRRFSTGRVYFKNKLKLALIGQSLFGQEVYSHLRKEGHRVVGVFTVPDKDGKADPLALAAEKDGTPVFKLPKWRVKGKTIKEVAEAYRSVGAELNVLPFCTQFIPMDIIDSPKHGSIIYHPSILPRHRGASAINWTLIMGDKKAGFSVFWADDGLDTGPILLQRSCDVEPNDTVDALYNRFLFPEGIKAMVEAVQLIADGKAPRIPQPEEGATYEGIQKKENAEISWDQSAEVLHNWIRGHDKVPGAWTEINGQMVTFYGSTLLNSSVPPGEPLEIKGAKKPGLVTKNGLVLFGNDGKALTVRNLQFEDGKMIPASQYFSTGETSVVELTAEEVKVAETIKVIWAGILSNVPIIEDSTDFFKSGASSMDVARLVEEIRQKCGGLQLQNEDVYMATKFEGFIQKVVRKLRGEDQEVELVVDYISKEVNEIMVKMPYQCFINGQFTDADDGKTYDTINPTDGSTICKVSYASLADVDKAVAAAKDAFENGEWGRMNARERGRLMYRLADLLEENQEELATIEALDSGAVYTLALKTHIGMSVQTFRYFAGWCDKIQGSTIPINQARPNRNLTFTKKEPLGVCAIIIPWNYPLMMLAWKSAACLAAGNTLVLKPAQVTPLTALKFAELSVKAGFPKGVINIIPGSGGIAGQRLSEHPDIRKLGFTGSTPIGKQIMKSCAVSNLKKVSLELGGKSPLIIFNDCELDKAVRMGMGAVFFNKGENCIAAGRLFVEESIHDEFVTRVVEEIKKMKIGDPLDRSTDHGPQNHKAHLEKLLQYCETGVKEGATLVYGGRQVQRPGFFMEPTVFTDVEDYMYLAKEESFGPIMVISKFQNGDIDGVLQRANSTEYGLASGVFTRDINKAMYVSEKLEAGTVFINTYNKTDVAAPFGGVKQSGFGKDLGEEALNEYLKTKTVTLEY
UniProt Q12802, 1160-1193: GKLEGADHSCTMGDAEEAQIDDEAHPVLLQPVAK
UniProt O00116: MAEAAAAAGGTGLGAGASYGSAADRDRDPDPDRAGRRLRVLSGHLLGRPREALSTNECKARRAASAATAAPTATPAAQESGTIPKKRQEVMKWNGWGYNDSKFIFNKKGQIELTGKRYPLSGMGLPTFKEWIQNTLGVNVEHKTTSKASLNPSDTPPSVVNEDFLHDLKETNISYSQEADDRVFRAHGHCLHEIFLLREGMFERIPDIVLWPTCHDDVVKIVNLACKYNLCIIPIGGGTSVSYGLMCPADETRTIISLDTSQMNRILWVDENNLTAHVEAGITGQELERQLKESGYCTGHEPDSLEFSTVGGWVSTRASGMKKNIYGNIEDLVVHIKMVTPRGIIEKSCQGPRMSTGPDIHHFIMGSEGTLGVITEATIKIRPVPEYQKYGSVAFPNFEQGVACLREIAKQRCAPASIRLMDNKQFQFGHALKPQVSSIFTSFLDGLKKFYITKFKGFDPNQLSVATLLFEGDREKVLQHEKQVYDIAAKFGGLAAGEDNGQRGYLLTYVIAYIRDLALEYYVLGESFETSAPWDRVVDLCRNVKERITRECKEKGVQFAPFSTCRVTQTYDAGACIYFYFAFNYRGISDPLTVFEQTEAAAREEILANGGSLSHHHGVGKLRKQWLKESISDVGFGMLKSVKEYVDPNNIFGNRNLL
UniProt Q9BUB4: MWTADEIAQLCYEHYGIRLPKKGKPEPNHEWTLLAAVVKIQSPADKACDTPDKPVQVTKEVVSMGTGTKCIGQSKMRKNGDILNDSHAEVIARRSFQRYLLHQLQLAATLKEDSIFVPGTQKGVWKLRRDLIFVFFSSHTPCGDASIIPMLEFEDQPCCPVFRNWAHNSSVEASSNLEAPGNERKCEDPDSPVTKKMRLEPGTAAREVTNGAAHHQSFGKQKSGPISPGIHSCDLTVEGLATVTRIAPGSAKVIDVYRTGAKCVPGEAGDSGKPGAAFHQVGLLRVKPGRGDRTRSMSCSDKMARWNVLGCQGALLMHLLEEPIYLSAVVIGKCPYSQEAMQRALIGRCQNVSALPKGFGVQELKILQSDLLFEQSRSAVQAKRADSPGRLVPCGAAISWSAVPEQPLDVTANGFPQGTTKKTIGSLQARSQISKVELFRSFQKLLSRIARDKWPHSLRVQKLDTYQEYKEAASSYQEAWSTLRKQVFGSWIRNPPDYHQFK
UniProt Q92685: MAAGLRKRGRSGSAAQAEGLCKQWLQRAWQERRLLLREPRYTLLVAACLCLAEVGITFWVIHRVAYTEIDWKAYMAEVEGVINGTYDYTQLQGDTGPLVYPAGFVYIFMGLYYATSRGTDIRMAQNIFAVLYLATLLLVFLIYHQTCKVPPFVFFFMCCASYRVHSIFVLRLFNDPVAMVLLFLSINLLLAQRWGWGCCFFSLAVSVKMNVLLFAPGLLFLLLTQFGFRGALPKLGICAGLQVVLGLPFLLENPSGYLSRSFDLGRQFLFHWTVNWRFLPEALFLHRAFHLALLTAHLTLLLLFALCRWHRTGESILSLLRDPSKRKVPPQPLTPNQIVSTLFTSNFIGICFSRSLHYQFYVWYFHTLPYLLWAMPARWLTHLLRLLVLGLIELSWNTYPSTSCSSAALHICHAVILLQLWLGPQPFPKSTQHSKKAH
UniProt Q8IY63: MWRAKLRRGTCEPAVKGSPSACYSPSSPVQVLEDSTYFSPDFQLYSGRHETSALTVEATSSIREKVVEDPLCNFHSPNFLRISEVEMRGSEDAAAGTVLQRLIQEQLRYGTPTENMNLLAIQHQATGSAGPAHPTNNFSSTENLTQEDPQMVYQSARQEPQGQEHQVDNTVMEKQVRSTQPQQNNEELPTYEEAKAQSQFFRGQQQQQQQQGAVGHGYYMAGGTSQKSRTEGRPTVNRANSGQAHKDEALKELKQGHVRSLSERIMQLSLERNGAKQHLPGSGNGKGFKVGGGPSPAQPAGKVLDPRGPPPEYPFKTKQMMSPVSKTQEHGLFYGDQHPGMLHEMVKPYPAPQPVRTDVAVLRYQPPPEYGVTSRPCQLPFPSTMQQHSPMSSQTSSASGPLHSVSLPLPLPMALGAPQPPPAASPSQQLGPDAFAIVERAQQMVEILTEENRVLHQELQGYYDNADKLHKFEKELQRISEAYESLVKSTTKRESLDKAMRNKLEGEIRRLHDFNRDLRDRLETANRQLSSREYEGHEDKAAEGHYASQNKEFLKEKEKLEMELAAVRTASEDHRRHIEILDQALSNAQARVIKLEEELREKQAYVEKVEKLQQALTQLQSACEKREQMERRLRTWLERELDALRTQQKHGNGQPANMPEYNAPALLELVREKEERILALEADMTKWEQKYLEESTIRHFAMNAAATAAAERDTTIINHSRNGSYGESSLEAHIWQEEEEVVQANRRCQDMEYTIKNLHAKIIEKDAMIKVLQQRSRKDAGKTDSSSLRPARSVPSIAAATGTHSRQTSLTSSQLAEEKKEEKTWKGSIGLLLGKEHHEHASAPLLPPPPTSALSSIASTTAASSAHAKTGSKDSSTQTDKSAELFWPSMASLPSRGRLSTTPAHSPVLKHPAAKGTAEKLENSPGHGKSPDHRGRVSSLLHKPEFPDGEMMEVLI
UniProt Q9NXW9: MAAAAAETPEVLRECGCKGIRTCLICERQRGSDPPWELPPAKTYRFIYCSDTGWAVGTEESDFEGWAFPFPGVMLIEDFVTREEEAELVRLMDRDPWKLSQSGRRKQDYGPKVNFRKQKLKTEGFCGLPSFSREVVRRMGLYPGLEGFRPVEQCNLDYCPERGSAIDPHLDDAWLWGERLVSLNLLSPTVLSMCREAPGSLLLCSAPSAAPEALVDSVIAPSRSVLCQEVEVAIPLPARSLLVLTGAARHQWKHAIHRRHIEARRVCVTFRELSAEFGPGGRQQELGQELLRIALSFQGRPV
UniProt Q99996, 3564-3587: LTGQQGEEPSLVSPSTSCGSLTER
UniProt Q9UJX3, whole entry, looked up: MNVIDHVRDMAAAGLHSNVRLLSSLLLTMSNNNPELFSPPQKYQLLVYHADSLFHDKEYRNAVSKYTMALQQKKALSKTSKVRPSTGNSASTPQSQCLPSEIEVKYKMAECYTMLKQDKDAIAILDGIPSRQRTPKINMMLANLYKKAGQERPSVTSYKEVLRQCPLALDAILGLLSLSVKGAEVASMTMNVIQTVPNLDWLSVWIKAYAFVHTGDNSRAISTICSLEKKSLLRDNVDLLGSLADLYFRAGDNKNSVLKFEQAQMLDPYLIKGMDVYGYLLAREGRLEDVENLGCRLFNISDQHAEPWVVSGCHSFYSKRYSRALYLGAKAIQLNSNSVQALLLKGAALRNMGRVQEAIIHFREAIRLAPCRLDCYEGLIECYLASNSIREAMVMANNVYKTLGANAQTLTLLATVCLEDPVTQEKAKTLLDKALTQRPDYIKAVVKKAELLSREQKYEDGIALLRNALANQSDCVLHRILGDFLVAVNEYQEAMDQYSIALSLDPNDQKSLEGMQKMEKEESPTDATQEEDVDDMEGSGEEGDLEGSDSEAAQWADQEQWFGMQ
UniProt P49189: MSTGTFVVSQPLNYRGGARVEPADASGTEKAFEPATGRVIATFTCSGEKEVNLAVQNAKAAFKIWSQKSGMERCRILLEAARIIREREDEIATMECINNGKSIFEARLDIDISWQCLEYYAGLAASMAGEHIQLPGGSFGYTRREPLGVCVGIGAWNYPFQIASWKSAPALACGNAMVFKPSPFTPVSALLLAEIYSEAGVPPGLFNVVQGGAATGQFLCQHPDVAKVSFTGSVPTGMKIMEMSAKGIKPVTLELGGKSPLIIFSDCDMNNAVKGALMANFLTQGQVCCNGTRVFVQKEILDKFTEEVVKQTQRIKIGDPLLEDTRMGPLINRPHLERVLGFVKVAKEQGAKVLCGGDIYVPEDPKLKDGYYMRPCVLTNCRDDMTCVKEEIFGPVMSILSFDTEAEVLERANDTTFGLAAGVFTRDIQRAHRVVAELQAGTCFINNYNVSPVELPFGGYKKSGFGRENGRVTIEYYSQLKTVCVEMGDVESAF
UniProt Q9H6R3: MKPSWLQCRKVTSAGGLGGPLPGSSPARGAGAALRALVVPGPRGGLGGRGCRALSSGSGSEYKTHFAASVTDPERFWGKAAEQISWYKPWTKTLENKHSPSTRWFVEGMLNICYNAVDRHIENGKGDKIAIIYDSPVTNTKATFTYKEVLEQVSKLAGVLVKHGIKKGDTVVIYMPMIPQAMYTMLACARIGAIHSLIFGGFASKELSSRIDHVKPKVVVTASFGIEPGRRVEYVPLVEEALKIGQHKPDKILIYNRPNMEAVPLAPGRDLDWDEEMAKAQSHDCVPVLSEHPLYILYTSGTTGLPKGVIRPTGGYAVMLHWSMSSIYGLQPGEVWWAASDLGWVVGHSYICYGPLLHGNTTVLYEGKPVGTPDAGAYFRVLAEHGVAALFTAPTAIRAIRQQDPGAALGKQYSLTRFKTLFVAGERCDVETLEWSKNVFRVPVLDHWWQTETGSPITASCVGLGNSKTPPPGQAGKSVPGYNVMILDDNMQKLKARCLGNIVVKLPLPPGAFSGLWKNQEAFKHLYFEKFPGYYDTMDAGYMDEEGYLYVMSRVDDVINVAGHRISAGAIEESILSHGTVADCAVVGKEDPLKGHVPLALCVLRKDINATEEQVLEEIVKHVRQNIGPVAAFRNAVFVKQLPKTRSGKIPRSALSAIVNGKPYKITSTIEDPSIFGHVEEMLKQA
UniProt P00568, 172-194: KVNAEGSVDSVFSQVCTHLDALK
UniProt P49419: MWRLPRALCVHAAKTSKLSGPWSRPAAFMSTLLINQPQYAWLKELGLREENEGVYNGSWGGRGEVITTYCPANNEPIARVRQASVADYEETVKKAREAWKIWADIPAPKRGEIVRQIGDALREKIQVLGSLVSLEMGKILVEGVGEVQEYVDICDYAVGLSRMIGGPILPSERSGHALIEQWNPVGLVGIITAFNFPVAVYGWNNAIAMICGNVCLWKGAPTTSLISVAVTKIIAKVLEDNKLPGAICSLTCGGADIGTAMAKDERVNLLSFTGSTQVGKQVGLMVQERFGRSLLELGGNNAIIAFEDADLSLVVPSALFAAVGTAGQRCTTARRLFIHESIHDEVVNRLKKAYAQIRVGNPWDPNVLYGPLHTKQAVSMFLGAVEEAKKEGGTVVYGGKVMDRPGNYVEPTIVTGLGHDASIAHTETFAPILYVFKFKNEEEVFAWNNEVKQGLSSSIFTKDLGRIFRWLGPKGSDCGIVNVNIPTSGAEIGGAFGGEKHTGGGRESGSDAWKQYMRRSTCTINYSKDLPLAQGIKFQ

Key:
[1] = compound: ClCC(=O)N[C@@H]1CCCc2ccccc12; test: log2 mean competition ratio of IA-DTB cysteine labelling (DMSO/compound) (log2 ratio); higher = stronger cysteine engagement by compound; conditions: treatment time: 4 h, cell line lysate: HEK293T
Protocol: (§1)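 IA-DTB competitive cysteine chemoproteomics in HEK293T RIPA lysate. Lysates were treated with compound 29 or 30 at 50 or 200 µM for 4 h, then IA-DTB (500 µM, 1 h), trypsin-digested, NeutrAvidin-enriched and analysed by diaPASEF. Competition ratio = intensity DMSO / intensity compound (n=4 treated, n=64 DMSO); binding: mean log2 CR ≥ 1 and p ≤ 0.05 plus QC filters. Target is the cysteine site.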

[2] = compound: ClCC(=O)N[C@H]1CCCc2ccccc12; test: as above; conditions: treatment time: 4 h, cell line lysate: HEK293T
Protocol: as §1

ALDH1L2 C707 (UniProt Q3SY69)
log2 mean competition ratio ([1]; 50 µM): -0.118
log2 mean competition ratio ([1]; 200 µM): -0.249
log2 mean competition ratio ([2]; 50 µM): -0.182
log2 mean competition ratio ([2]; 200 µM): -0.0765

ANAPC1 C988 (UniProt Q9H1A4)
log2 mean competition ratio ([1]; 50 µM): -0.438
log2 mean competition ratio ([1]; 200 µM): -0.00826
log2 mean competition ratio ([2]; 50 µM): 0.134
log2 mean competition ratio ([2]; 200 µM): -0.0148

AKAP13 C1169 (UniProt Q12802)
log2 mean competition ratio ([1]; 50 µM): -0.23
log2 mean competition ratio ([1]; 200 µM): -0.314
log2 mean competition ratio ([2]; 50 µM): 0.116
log2 mean competition ratio ([2]; 200 µM): -0.214

ALX1 C248
log2 mean competition ratio ([1]; 50 µM): 0.0357
log2 mean competition ratio ([1]; 200 µM): 0.061
log2 mean competition ratio ([2]; 50 µM): -0.374
log2 mean competition ratio ([2]; 200 µM): 0.0874

AGPS C214 (UniProt O00116)
log2 mean competition ratio ([1]; 50 µM): 0.139
log2 mean competition ratio ([1]; 200 µM): -0.215
log2 mean competition ratio ([2]; 50 µM): -0.279
log2 mean competition ratio ([2]; 200 µM): -0.169

ACTR2 C221 (UniProt P61160)
log2 mean competition ratio ([1]; 50 µM): 0.329
log2 mean competition ratio ([1]; 200 µM): -0.111
log2 mean competition ratio ([2]; 50 µM): 0.363
log2 mean competition ratio ([2]; 200 µM): -0.233

ADAT1 C186 (UniProt Q9BUB4)
log2 mean competition ratio ([1]; 50 µM): -0.373
log2 mean competition ratio ([1]; 200 µM): 0.0481
log2 mean competition ratio ([2]; 50 µM): -0.205
log2 mean competition ratio ([2]; 200 µM): 0.203

ALG3 C21 (UniProt Q92685)
log2 mean competition ratio ([1]; 50 µM): -0.0526
log2 mean competition ratio ([1]; 200 µM): 0.11
log2 mean competition ratio ([2]; 50 µM): -0.123
log2 mean competition ratio ([2]; 200 µM): 0.105

AMOTL1 C748 (UniProt Q8IY63)
log2 mean competition ratio ([1]; 50 µM): -0.0677
log2 mean competition ratio ([1]; 200 µM): 0.497
log2 mean competition ratio ([2]; 50 µM): -0.583
log2 mean competition ratio ([2]; 200 µM): 0.631

ALKBH4 C126 (UniProt Q9NXW9)
log2 mean competition ratio ([1]; 50 µM): 0.379
log2 mean competition ratio ([1]; 200 µM): 0.384
log2 mean competition ratio ([2]; 50 µM): 0.423
log2 mean competition ratio ([2]; 200 µM): 0.148

ADK C353
log2 mean competition ratio ([1]; 50 µM): -0.116
log2 mean competition ratio ([1]; 200 µM): -0.167
log2 mean competition ratio ([2]; 50 µM): -0.76
log2 mean competition ratio ([2]; 200 µM): -0.0856

AKAP13 C73 (UniProt Q12802)
log2 mean competition ratio ([1]; 50 µM): 0.00445
log2 mean competition ratio ([1]; 200 µM): -0.215
log2 mean competition ratio ([2]; 50 µM): 0.195
log2 mean competition ratio ([2]; 200 µM): -0.254

AKAP9 C3581 (UniProt Q99996)
log2 mean competition ratio ([1]; 50 µM): -0.338
log2 mean competition ratio ([1]; 200 µM): -0.328
log2 mean competition ratio ([2]; 50 µM): -0.0739
log2 mean competition ratio ([2]; 200 µM): -0.0488

ANAPC7 C225 (UniProt Q9UJX3)
log2 mean competition ratio ([1]; 50 µM): -0.0301
log2 mean competition ratio ([1]; 200 µM): 0.0423
log2 mean competition ratio ([2]; 50 µM): 0.137
log2 mean competition ratio ([2]; 200 µM): 0.00101

ALDH9A1 C45 (UniProt P49189)
log2 mean competition ratio ([1]; 50 µM): -0.278
log2 mean competition ratio ([1]; 200 µM): -0.281
log2 mean competition ratio ([2]; 50 µM): 0.0886
log2 mean competition ratio ([2]; 200 µM): -0.272

ALDH1L2 C472 (UniProt Q3SY69)
log2 mean competition ratio ([1]; 50 µM): -0.207
log2 mean competition ratio ([1]; 200 µM): 0.109
log2 mean competition ratio ([2]; 50 µM): 0.0426
log2 mean competition ratio ([2]; 200 µM): 0.104

ACSS3 C428 (UniProt Q9H6R3)
log2 mean competition ratio ([1]; 50 µM): 0.631
log2 mean competition ratio ([1]; 200 µM): -0.0145
log2 mean competition ratio ([2]; 50 µM): -0.00398
log2 mean competition ratio ([2]; 200 µM): -0.497

AK1 C187 (UniProt P00568)
log2 mean competition ratio ([1]; 50 µM): 0.376
log2 mean competition ratio ([1]; 200 µM): 0.291
log2 mean competition ratio ([2]; 50 µM): -0.00748
log2 mean competition ratio ([2]; 200 µM): 0.0433

ALDH7A1 C70 (UniProt P49419)
log2 mean competition ratio ([1]; 50 µM): -0.135
log2 mean competition ratio ([1]; 200 µM): -0.287
log2 mean competition ratio ([2]; 50 µM): 0.152
log2 mean competition ratio ([2]; 200 µM): -0.276

ANKHD1 C873
log2 mean competition ratio ([1]; 50 µM): 0.517
log2 mean competition ratio ([1]; 200 µM): -0.299
log2 mean competition ratio ([2]; 50 µM): 0.519
log2 mean competition ratio ([2]; 200 µM): -0.32

ACTG1 C285
log2 mean competition ratio ([1]; 50 µM): -0.0387
log2 mean competition ratio ([1]; 200 µM): -0.0956
log2 mean competition ratio ([2]; 50 µM): -0.163
log2 mean competition ratio ([2]; 200 µM): -0.0415

AKAP11 C1587 (UniProt Q9UKA4)
log2 mean competition ratio ([1]; 50 µM): 0.158
log2 mean competition ratio ([1]; 200 µM): 0.183
log2 mean competition ratio ([2]; 50 µM): 0.278
log2 mean competition ratio ([2]; 200 µM): 0.215

AKAP9 C1782 (UniProt Q99996)
log2 mean competition ratio ([1]; 50 µM): -0.144
log2 mean competition ratio ([1]; 200 µM): 0.17
log2 mean competition ratio ([2]; 50 µM): -0.168
log2 mean competition ratio ([2]; 200 µM): -0.277

ANKHD1 C213
log2 mean competition ratio ([1]; 50 µM): -0.16
log2 mean competition ratio ([1]; 200 µM): 0.0335
log2 mean competition ratio ([2]; 50 µM): -0.0998
log2 mean competition ratio ([2]; 200 µM): -0.216
